Tested on: A549 cells
Assay type: cell-based
Conditions: A549 non-small cell lung cancer cells, MTT, 5 days incubation

## N.N.[Cl][Pt][Cl] [Cisplatin, cis-diamminedichloroplatinum (II)]
  IC50: 1500 nM
